PubChem BioAssay AID686943, Drosophila RNAi Screening Center, 2013
In all, the deposit lists about 23,000 reagents; this is an unselected part of those with a known target gene and a result. 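Extra replicates exist only for a retested subset of genes; insulin dose and duration not given; both raised and lowered dpERK matter.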 Not all columns of the deposit are shown. No sequences are given here. Not given: the amount of reagent, the time to read-out.

Aim: 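Knockdowns that increase or decrease active ERK after insulin receptor stimulation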 (primary screen)
Cells: Drosophila S2R+ haemocyte-like cells expressing YFP-tagged ERK (Rolled)
Reagent: long dsRNA against Drosophila genes
Challenge: insulin stimulation versus unstimulated cells; dose and duration not given
Measured: 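Per-plate z-scores of phospho-ERK immunostaining normalised to YFP-tagged ERK, measured with and without insulin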
Reading the numbers: replicate 1, z-score of dpERK with insulin and replicate 2, z-score of dpERK with insulin: higher = more active ERK per ERK-YFP after insulin

Target gene	dsRNA	replicate 1, z-score of dpERK with insulin	replicate 2, z-score of dpERK with insulin
CG2076	DRSC19832	0.3	-0.23
fra	DRSC07621	-0.22	-0.58
ccb	DRSC20501	-0.41	-0.07
Nepl8	DRSC02759	0.65	0.01
wisp	DRSC19703	0.66	0.9
CG13784	DRSC00974	0.56	0.04
CG13784	DRSC02287	-3.56	-3.42
CG34268	DRSC07874	1	0.48
CG15317	DRSC18005	0.99	0.64
Mt2	DRSC03374	-0.72	-0.05
CG33458	DRSC22891	1.58	0.45
CG15023	DRSC08477	0.09	-1.03
Osi8	DRSC12277	-0.1	-0.75
PpD3	DRSC16796	-0.37	-0.97
TM9SF4	DRSC01888	0.04	0.45
seq	DRSC06863	0.42	0.78
Alh	DRSC12447	-4.94	-3.55
Alh	DRSC12487	1.46	0.81
Alh	DRSC12488	0.57	1.84
CG1698	DRSC06640	-0.24	-0.42
Pdss2	DRSC11625	0.21	0.16
CG31548	DRSC22640	0.99	1.48
Hen1	DRSC06139	-0.14	0.03
Hen1	DRSC06140	-0.35	1.1
Ir92a	DRSC15111	0.26	-2.52
nis	DRSC00290	-1.72	-0.31
MED1	DRSC11808	0.97	0.66
CG14313	DRSC14792	0.13	-0.05
Mcm3	DRSC18679	-1.08	-0.86
CG14401	DRSC02385	0.78	-0.48
CG14401	DRSC21710	0.61	1.88
nemy	DRSC05357	-0.12	-0.41
nemy	DRSC07262	-0.29	0.71
Cyp6a21	DRSC07381	-0.61	-1.12
CG9044	DRSC03130	-0.13	0.8
goe	DRSC19345	0.44	-0.15
Spn	DRSC07986	0.86	0.02
Spn	DRSC08490	0.87	-0.24
Spn	DRSC08491	0.36	1.65
Nup54	DRSC07282	-0.48	0.22
Ugt305A1	DRSC08541	-0.81	-0.33
Su(var)2-HP2	DRSC06204	0.14	-0.75
CG31407	DRSC12761	-0.38	0.19
CG6724	DRSC02983	0.2	0.34
C901	DRSC19351	0.31	0.38
CG34115	DRSC03840	0.67	-0.5
RpS17	DRSC11271	-0.86	-1.56
sca	DRSC07677	-0.48	-0.21
Marf	DRSC18329	-0.31	-2.78
Pfdn5	DRSC16183	-0.58	0.55
CG10628	DRSC02080	-0.31	-0.1
Rpp14b	DRSC15063	0.22	0
Fbxo42	DRSC04529	-0.22	-0.06
CG42542	DRSC15549	0.38	-0.16
CG42542	DRSC22264	4.72	1.14
Polr2K	DRSC05535	3.13	1.54
Dlg5	DRSC02964	1.08	-0.14

Part of the list above in another layout:
{"Target gene":"nis","dsRNA":"DRSC00290","replicate 1, z-score of dpERK with insulin":-1.72,"replicate 2, z-score of dpERK with insulin":-0.31}
{"Target gene":"MED1","dsRNA":"DRSC11808","replicate 1, z-score of dpERK with insulin":0.97,"replicate 2, z-score of dpERK with insulin":0.66}
{"Target gene":"CG14313","dsRNA":"DRSC14792","replicate 1, z-score of dpERK with insulin":0.13,"replicate 2, z-score of dpERK with insulin":-0.05}
{"Target gene":"Mcm3","dsRNA":"DRSC18679","replicate 1, z-score of dpERK with insulin":-1.08,"replicate 2, z-score of dpERK with insulin":-0.86}
{"Target gene":"CG14401","dsRNA":"DRSC02385","replicate 1, z-score of dpERK with insulin":0.78,"replicate 2, z-score of dpERK with insulin":-0.48}
